Source: patent publication US20020037516
Weaker means in comparison with the reference protein, sequence or condition of that experiment.

Target: TSR thiostrepton resistance methyltransferase (tsr) (Streptomyces azureus) (UniProt P18644)
Experiment: binding assay
Details: weak methylation substrate; purified recombinant protein; variant of LHL 29-mer of E. coli mGAR

Question: Does “GGGCUUAGAAGCAGCCU [LHL 17-mer of E. coli mGAR]” bind?
Answer: Result: binds more weakly
